Test results published in PubChem BioAssay AID248 (DTP/NCI, 2004).
The list does not hold the whole screen: it gathers tests that were run many times, whatever their T/C, doses with no T/C, and many T/C values between a quarter and a half above the control. Other doses and runs of a compound stand elsewhere. T/C gives the treated animals as a percentage of the vehicle group. Some entries give survivors of the animals treated and no T/C: the source files T/C as zero there, which appears to mark a toxic dose or a test without result, not a measured value. Some survivor counts are full or nearly so, which does not show that the dose was tolerated: survival well below the control is almost never listed, so the zero probably covers shortened survival too. Counts of survivors are from the toxicity check (mostly the fifth day) where no day follows; animals may have died later. Schedules are NCI's codes, taken here to give the interval after Q, in days (D) or hours (H), and the number of doses after X. Some doses were run more than once; the results are listed from low to high. Some structures stand for samples that the source files as different forms (salt, stereo form or complex); doses refer to the form tested. Counts like (3×) count equal records among those shown. Where survival is the endpoint, the PubChem record calls one and a half times the control and up active, and a quarter to a half above the control has no call in these data; cut-offs in other NCI protocols can differ.

System: L1210 leukemia ip in BDF1 mice, survival T/C
Test: NCI In Vivo Anticancer Drug Screen. Data for tumor model L1210 Leukemia (intraperitoneal) in B6D2F1 (BDF1) mice
Details: T/C endpoint: mean survival time, higher T/C = longer survival
[1] = dose: 80.0 mg/kg/injection, schedule: Q01DX001 (ip), vehicle: saline
[2] = dose: 200.0 mg/kg/injection, schedule: Q04DX003 (ip), vehicle: saline
[3] = dose: 400.0 mg/kg/injection, schedule: Q04DX003 (ip), vehicle: saline with Tween-80
[4] = dose: 50.0 mg/kg/injection, schedule: Q04DX003 (ip), vehicle: saline
[5] = dose: 100.0 mg/kg/injection, schedule: Q04DX003 (ip), vehicle: saline
[6] = dose: 400.0 mg/kg/injection, schedule: Q04DX003 (ip), vehicle: saline
[7] = dose: 100.0 mg/kg/injection, schedule: Q01DX009 (ip), vehicle: Klucel (hydroxypropylcellulose) (HPC)
[8] = dose: 200.0 mg/kg/injection, schedule: Q01DX009 (ip), vehicle: Klucel (hydroxypropylcellulose) (HPC)
[9] = dose: 400.0 mg/kg/injection, schedule: Q01DX009 (ip), vehicle: Klucel (hydroxypropylcellulose) (HPC)
[10] = dose: 400.0 mg/kg/injection, schedule: Q01DX009 (ip), vehicle: saline with Tween-80
[11] = dose: 200.0 mg/kg/injection, schedule: Q04DX003 (ip), vehicle: Klucel (hydroxypropylcellulose) (HPC)
[12] = dose: 100.0 mg/kg/injection, schedule: Q01DX009 (ip), vehicle: saline with Tween-80
[13] = dose: 200.0 mg/kg/injection, schedule: Q01DX009 (ip), vehicle: saline with Tween-80
[14] = dose: 50.0 mg/kg/injection, schedule: Q01DX009 (ip), vehicle: saline with Tween-80
[15] = dose: 75.0 mg/kg/injection, schedule: Q01DX009 (ip), vehicle: saline with Tween-80

CCCN=Cc1ccccc1O.CCCN=Cc1ccccc1O.[Cu]
survivor count (dose: 75.0 mg/kg/injection, schedule: Q01DX001 (ip), vehicle: other): 0 of 6
survivor count (dose: 150.0 mg/kg/injection, schedule: Q01DX001 (ip), vehicle: other): 1 of 6
survivor count (dose: 300.0 mg/kg/injection, schedule: Q01DX001 (ip), vehicle: other): 0 of 6

Nc1nccnc1C(=O)O
survivor count (dose: 400.0 mg/kg/injection, schedule: Q01DX009 (ip), vehicle: water): 3 of 6

C=C(C)C1CNC(C(=O)O)C1CC(=O)O (stereo unspecified)
survivor count (dose: 25.0 mg/kg/injection, schedule: Q01DX009 (ip), vehicle: saline sonified): 3 of 6

CC1(C)N=C(N)N=C(N)N1c1cccc(OCc2cccc([N+](=O)[O-])c2)c1
survivor count [1]: 0 of 4
survivor count (dose: 200.0 mg/kg/injection, schedule: Q01DX001 (ip), vehicle: saline): 2 of 4
survivor count (dose: 400.0 mg/kg/injection, schedule: Q01DX001 (ip), vehicle: saline): 0 of 4

CN1C(c2ccco2)NC(=O)C12CCN(Cc1ccccc1)CC2 (stereo unspecified)
survivor count (dose: 400.0 mg/kg/injection, schedule: Q01DX001 (ip), vehicle: carboxymethylcellulose (CMC)): 1 of 6

O=c1[nH]c(=O)n(CCCc2ccccc2)cc1-c1ccccc1
survivor count (dose: 100.0 mg/kg/injection, schedule: Q01DX001 (ip), vehicle: carboxymethylcellulose (CMC)): 4 of 4
survivor count (dose: 200.0 mg/kg/injection, schedule: Q01DX001 (ip), vehicle: carboxymethylcellulose (CMC)): 4 of 4

CCOC(=O)C(C)C(=O)C(=O)N=C(N)N (stereo unspecified)
survivor count [2]: 6 of 6

CCOC(=O)C(=O)Nc1cc(C)ccc1C
survivor count [3]: 6 of 6

CN(C=O)C(=S)[S-].CN(C=O)C(=S)[S-].CN(C=O)C(=S)[S-].O=C(Nc1ccc(S(=O)(=O)Nc2ccc(N=Nc3ccc4nc([S-])sc4c3)cc2)cc1)C(N1CC1)(N1CC1)N1CC1.[Pd]
survivor count [4]: 3 of 6
survivor count [5]: 0 of 6
survivor count [2]: 0 of 6
survivor count [6]: 0 of 6

CCCCNC(C)(C)C(S)c1ccc(Cl)cc1 (stereo unspecified)
survivor count (dose: 50.0 mg/kg/injection, schedule: Q01DX009 (ip), vehicle: Klucel (hydroxypropylcellulose) (HPC)): 2 of 6
survivor count [5]: 1 of 6
survivor count [2]: 1 of 6
survivor count [6]: 0 of 6

CSc1nc2ccc(S(=O)(=O)O)cc2s1
survivor count [7]: 6 of 6
survivor count [8]: 6 of 6
survivor count [9]: 0 of 6

COc1cc2c(c(OC)c1OC)CCNC2
survivor count [1]: 1 of 6

CCCCN(CC)CC#N
survivor count [4]: 6 of 6

C=CCN1C(=O)C2C3C=CC(C3)C2C1=O (stereo unspecified)
T/C (dose: 12.0 mg/kg/injection, schedule: Q04DX002 (ip), vehicle: Klucel (hydroxypropylcellulose) (HPC)): 125 % of control

Cc1ccc(C)c(NC(=O)NCc2ccco2)c1
survivor count [10]: 5 of 6

O=C1N(Cl)C(=O)C(c2ccc(Cl)cc2)(c2ccc(Cl)cc2)N1Cl
survivor count (dose: 400.0 mg/kg/injection, schedule: Q01DX009 (ip), vehicle: saline sonified): 2 of 6

Oc1ccccc1C=NCCN1CC1.Oc1ccccc1C=NCCN1CC1.[Co+2]
survivor count (dose: 100.0 mg/kg/injection, schedule: Q04DX002 (ip), vehicle: saline): 2 of 3
survivor count (dose: 200.0 mg/kg/injection, schedule: Q04DX002 (ip), vehicle: saline): 0 of 3
survivor count (dose: 400.0 mg/kg/injection, schedule: Q04DX002 (ip), vehicle: saline): 0 of 3

COc1ccccc1/C=C/[N+](=O)[O-]
survivor count [7]: 4 of 6
survivor count [8]: 0 of 6
survivor count [11]: 6 of 6
survivor count [9]: 0 of 6

CCCNc1ccc(S(=O)(=O)c2ccc(N)cc2)cc1
survivor count [12]: 6 of 6
survivor count [13]: 6 of 6
survivor count [10]: 6 of 6

Cc1ccc(S(=O)(=O)OC2CCN(C)CC2)cc1
survivor count [4]: 0 of 6
survivor count [5]: 0 of 6
survivor count (dose: 200.0 mg/kg/injection, schedule: Q01DX005 (ip), vehicle: saline): 0 of 3
survivor count [2]: 0 of 6
survivor count (dose: 400.0 mg/kg/injection, schedule: Q01DX005 (ip), vehicle: saline): 0 of 3
survivor count [6]: 0 of 6

c1ccc(COCc2ccccc2Cn2ccnc2)cc1
survivor count [5]: 4 of 6
survivor count [2]: 0 of 6
survivor count [6]: 0 of 6

O=C(Cc1cccc2ccccc12)N/N=C/c1ccccc1O
survivor count [13]: 5 of 6
survivor count [10]: 4 of 6

C=CC[N+](CC=C)(CC=C)C/C=C/C[N+](CC=C)(CC=C)CC=C
survivor count (dose: 50.0 mg/kg/injection, schedule: Q01DX009 (ip), vehicle: water): 3 of 6
survivor count (dose: 100.0 mg/kg/injection, schedule: Q01DX009 (ip), vehicle: water): 0 of 6
survivor count (dose: 100.0 mg/kg/injection, schedule: Q04DX003 (ip), vehicle: water): 0 of 6
survivor count (dose: 200.0 mg/kg/injection, schedule: Q01DX009 (ip), vehicle: water): 0 of 6
survivor count (dose: 200.0 mg/kg/injection, schedule: Q04DX003 (ip), vehicle: water): 0 of 6
survivor count (dose: 400.0 mg/kg/injection, schedule: Q04DX003 (ip), vehicle: water): 0 of 6

CCCC(=O)Nc1ccn(C2OC(COC(=O)CCC)C(OC(=O)CCC)C2OC(=O)CCC)c(=O)n1 (stereo unspecified)
T/C (dose: 600.0 mg/kg/injection, schedule: Q01DX001 (ip), vehicle: carboxymethylcellulose (CMC)): 127 % of control

O=CC(CO)C(C=O)n1ncc2ccccc21 (stereo unspecified)
survivor count (dose: 100.0 mg/kg/injection, schedule: Q01DX005 (ip), vehicle: water): 0 of 3
survivor count (dose: 200.0 mg/kg/injection, schedule: Q01DX005 (ip), vehicle: water): 0 of 3

Br[C](Br)(Br)[Hg][c]1ccccc1
survivor count (dose: 50.0 mg/kg/injection, schedule: Q04DX003 (ip), vehicle: Klucel (hydroxypropylcellulose) (HPC)): 0 of 6
survivor count (dose: 100.0 mg/kg/injection, schedule: Q04DX003 (ip), vehicle: Klucel (hydroxypropylcellulose) (HPC)): 2 of 6
survivor count [11]: 4 of 6
survivor count (dose: 400.0 mg/kg/injection, schedule: Q04DX003 (ip), vehicle: Klucel (hydroxypropylcellulose) (HPC)): 2 of 6

C=C(C)C1(Cc2ccccc2)C(=O)NC(=O)NC1=O
survivor count (dose: 75.0 mg/kg/injection, schedule: Q01DX001 (ip), vehicle: saline): 1 of 6
survivor count (dose: 150.0 mg/kg/injection, schedule: Q01DX001 (ip), vehicle: saline): 0 of 6 and 2 of 6
survivor count (dose: 300.0 mg/kg/injection, schedule: Q01DX001 (ip), vehicle: saline): 0 of 6 (2×)

CCC(C)c1cc(CN(C)C)cc(C(C)CC)c1O (stereo unspecified)
survivor count [7]: 3 of 6
survivor count [8]: 0 of 6
survivor count [9]: 0 of 6

CC(C)OCc1c(N)nc(=S)[nH]c1C(=O)O
survivor count (dose: 100.0 mg/kg/injection, schedule: Q01DX009 (ip), vehicle: saline): 2 of 6
survivor count (dose: 200.0 mg/kg/injection, schedule: Q01DX009 (ip), vehicle: saline): 0 of 6
survivor count [2]: 0 of 6
survivor count [6]: 0 of 6

FC(F)c1nc2nc(Cl)c(Cl)nc2[nH]1
T/C (dose: 25.0 mg/kg/injection, schedule: Q01DX009 (ip), vehicle: saline with Tween-80): 129 and 133 % of control
T/C [14]: 145 % of control
survivor count [14]: 2 of 6
T/C [15]: 141 % of control
survivor count [15]: 0 of 6
survivor count [12]: 0 of 6, 2 of 6, 3 of 6
survivor count (dose: 200.0 mg/kg/injection, schedule: Q04DX003 (ip), vehicle: saline with Tween-80): 3 of 6
survivor count [3]: 0 of 6
